What all share (experiment): co-IP; Myc-ACBD5 constructs or Myc-VAPB in COS-7 lysates (10 mM Tris-HCl pH 7.4, 150 mM NaCl, 0.5 mM EDTA, 0.5% NP-40, phosphatase inhibitor), Myc-TRAP magnetic agarose beads 1 h at 4°C; immunoblot; in some panels GSK3β WT or K85A coexpressed (Figs. 2 C, 3 A, 5 A, 7 A, S1 C, S4 B)
The target of test [1] is T1, Myc-ACBD5 S269E (UniProt Q5T8D3).
T1 sequence: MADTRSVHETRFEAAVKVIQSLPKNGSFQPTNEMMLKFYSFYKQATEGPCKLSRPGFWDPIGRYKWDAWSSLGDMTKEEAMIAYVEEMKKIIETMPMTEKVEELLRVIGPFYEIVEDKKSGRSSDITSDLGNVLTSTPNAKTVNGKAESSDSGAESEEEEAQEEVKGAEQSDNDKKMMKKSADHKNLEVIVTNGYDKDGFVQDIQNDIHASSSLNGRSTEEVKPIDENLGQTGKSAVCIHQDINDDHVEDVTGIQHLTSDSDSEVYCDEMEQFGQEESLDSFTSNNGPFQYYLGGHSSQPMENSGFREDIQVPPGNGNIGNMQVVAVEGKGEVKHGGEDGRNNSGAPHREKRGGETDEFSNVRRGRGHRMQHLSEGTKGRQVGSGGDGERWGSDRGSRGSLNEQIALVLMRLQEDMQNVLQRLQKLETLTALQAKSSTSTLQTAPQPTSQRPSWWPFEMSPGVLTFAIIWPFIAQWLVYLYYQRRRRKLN

Test [2] deals with T2, Myc-ACBD5 T252E (UniProt Q5T8D3).
T2 sequence: T1 sequence with T252E, E269S

For test [3], the target named is T3, Myc-ACBD5 S269A (UniProt Q5T8D3).
T3 sequence: T1 sequence with E269A

Test [4] deals with T4, Myc-ACBD5 S261A (UniProt Q5T8D3).
T4 sequence: T1 sequence with S261A, E269S

Results on one substance are retold here after publication PMC8759595.

Substitutions are numbered along the chain they refer to. These are yes or no findings as the source states them, for the method shown. In cells and extracts the contact can be indirect. For some of these results: Binding can be weak; no strength is given. Where a sequence is shown, tags or fusion partners need not be part of it.

For the substance endogenous VAPB (COS-7 cells), the binding entry in test [1] is recorded as “no binding”; in test [2], “binds”; in test [3], “binds”; in test [4], “binds”.
